Reference: publication PMC6925144, “A prospective compound screening contest identified broader inhibitors for Sirtuin 1” (Scientific Reports, 2019)
The full ranking holds about 3,200 compounds; the median of “TSA(without NAD+) / Primary screening (TSA) / delta Tm (K)” is about -0.07, and the highest 2% start at about 0.37. This is one part of the list.

Sequences of proteins named here, by UniProt entry; tags and fusion partners are left off. Residues count along the entry.
UniProt Q96EB6, 2-747 limits assumed: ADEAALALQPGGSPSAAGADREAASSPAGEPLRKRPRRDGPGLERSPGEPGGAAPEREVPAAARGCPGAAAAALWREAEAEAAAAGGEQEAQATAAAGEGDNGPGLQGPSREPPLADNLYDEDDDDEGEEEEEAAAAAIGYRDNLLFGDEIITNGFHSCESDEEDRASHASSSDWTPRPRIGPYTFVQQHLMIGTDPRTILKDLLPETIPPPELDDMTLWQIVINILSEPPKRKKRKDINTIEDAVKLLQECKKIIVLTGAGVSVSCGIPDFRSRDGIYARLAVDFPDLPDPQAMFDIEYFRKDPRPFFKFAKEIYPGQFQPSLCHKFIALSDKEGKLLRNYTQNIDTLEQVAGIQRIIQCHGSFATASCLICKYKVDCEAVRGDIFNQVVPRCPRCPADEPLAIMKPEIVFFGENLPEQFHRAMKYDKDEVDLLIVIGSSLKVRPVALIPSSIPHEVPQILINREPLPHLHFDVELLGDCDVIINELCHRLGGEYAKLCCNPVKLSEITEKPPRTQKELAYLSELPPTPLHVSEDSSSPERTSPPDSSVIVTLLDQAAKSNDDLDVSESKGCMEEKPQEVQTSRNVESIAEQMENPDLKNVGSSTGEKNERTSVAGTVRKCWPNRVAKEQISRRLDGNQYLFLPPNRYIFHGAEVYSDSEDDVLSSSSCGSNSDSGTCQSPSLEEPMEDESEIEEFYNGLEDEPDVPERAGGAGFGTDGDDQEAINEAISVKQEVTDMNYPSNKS

These compounds were tested against NAD-dependent deacetylase Sirtuin 1 (human, UniProt Q96EB6) (assay: primary screen, delta tm). Conditions: 10 µM.
Parameters: single well (n = 1)
Procedure: A total of 3,192 compounds extracted from the proposed lists were first screened by thermal shift assay (TSA), which determined a melting temperature shift (ΔTm) of Sirtuin 1 upon the addition of a test compound at a concentration of 10 µM (n = 1) with primary hit criteria of ΔTm > 0.45 K or ΔTm < −1.5 K. Primary hits (48 compounds) were retested in the same assay at three concentrations (5, 10, 20 µM, n = 4) for hit confirmation and for dose-dependency check. Secondary hits (41 compounds) were checked their selectivity for Sirtuin 1 based on counterscreening on unrelated protein targets (bovine carbonic anhydrase (CA) and recombinant SH2 domain of hABL1 kinase (ABL1)) at three different concentrations (5, 10, 20 µM, n = 4), which yielded 38 hit compounds, hereafter referred to as TSA hits. The TSA screening above was conducted in the absence of NAD+.

SMILES | TSA(without NAD+) / Primary screening (TSA) / delta Tm (K)
Cc1cccc(C(=O)Oc2ccc3oc4ccccc4c3c2)c1 | 0.18
CC(=O)N1CCc2[nH]c3ccc(C)cc3c2C1 | -0.11
O=C1/C(=C\c2ccc(Br)cc2)CC/C1=C/c1ccccc1OC(F)F | -0.08
O=C(CCCCc1c[nH]nn1)Nc1cccn(Cc2ccc(F)cc2)c1=O | -0.12
O=C(NCc1nc2ccccc2[nH]1)/C(=C/c1ccccc1)c1ccccc1 | 0.09
O=C(NCc1ccc(N2CCCC2=O)cc1)c1ccc(NC(=O)C2CC2)s1 | 0.18
CN(C(=O)Cc1ccc(-c2ccccc2)cc1)C1CCc2ccccc21 (stereo not drawn) | -0.33
CC(C)(C)c1ccc(OCC(=O)NNC(=O)c2cccnc2O)cc1 | 0.17
CC(=O)Nc1ccc(CNC(=O)c2c(C)[nH]c3ccccc23)cc1 | 0.05
COc1ccc(-c2cc(C(=O)Nc3ccc(C(N)=O)cc3)c3ccccc3n2)cc1 | -0.02
Clc1cc(Cl)cc(NC(c2cccnc2)c2ncc[nH]2)c1 (stereo not drawn) | -0.14
CCOc1ccc(C(=O)C2=C(O)C(=O)N(CCCN3CCOCC3)C2c2ccccn2)cc1 (stereo not drawn) | -0.17
CCS(=O)CCN (stereo not drawn) | -0.18
Cc1ccc2nc(-c3ccccc3)c(N)n2c1 | -0.17
CC(C)(CNS(=O)(=O)c1ccc(C(N)=O)cc1)c1ccc2c(c1)OCO2 | 0.07
COc1ccc(-c2cc(C(=O)Nc3cc(Cl)ccc3C#N)c3ccccc3n2)cc1OC | -0.27
O=c1cc(Cn2nnc3ccccc3c2=O)c2cc3c(cc2o1)CCC3 | -0.07
CS(=O)(=O)c1ccc(NCCNC(=O)C23CC4CC(C2)CC(c2ccccc2)(C4)C3)c([N+](=O)[O-])c1 | 0.13
O=C(CSc1nnc(Cc2ccccc2)o1)N1N=C(c2cccs2)CC1c1cccs1 (stereo not drawn) | 0.12
Cc1cc(C(=O)N2CCN(C(=O)Nc3cccc(NC(=O)c4ccncc4)c3)CC2)c(C)o1 | 0.12
COCCCn1ccc(Nc2nc(C)nc3[nH]ccc23)n1 | -0.14
CCC(C)NC(=O)CSc1nnc(-c2c[nH]c3ccccc23)n1Cc1ccco1 (stereo not drawn) | 0.05
CSc1ncc(C(=O)OCC(N)=O)n1-c1ccccc1 | -0.22
COc1cccc(-c2nc(CSc3nnc(-c4ccco4)n3Cc3ccccc3)cs2)c1 | -0.22

Given as tab-separated lines: two of the compounds above.
SMILES	TSA(without NAD+) / Primary screening (TSA) / delta Tm (K)
CC(C)(C)c1ccc(OCC(=O)NNC(=O)c2cccnc2O)cc1	0.17
CCC(C)NC(=O)CSc1nnc(-c2c[nH]c3ccccc23)n1Cc1ccco1 (stereo not drawn)	0.05

(next part)

SMILES | TSA(without NAD+) / Primary screening (TSA) / delta Tm (K)
COc1ccc(C(CNC(=O)C2=COCCO2)c2c[nH]c3ccccc23)cc1 (stereo not drawn) | -0.02
O=C(CCCN1C(=O)c2cccc3cccc(c23)C1=O)NNC(=O)CC12CC3CC(CC(C3)C1)C2 | 0.02
NC(=O)c1ncn(-c2ccncc2)c1N | -0.02
O=C(C1=C(O)C(=O)N(CCCN2CCOCC2)C1c1ccc(Cl)c(Cl)c1)c1ccco1 (stereo not drawn) | -0.03
Cc1[nH]c2ccccc2c1C(=O)C(C)N1CCC(C(N)=O)CC1 (stereo not drawn) | 0.19
COc1ccc(C(C)=O)c2ccccc12 | -0.12
CCCOc1cccc(C2C(C(=O)c3ccc(OC)cc3)=C(O)C(=O)N2CCCN2CCOCC2)c1 (stereo not drawn) | -0.23
CC(NS(C)(=O)=O)C(=O)O (stereo not drawn) | -0.01
CCOC(=O)c1sc(N(Cc2ccccc2)C(=O)CSc2nnc(C3CC3)n2N)nc1C | -0.13
CCOC(=O)c1sc2nc(C)nc(N3CCN(S(=O)(=O)c4cccs4)CC3)c2c1C | -0.08
CC(C)(C)c1ccc(COc2ccc3c4c(c(=O)oc3c2)CCC4)cc1 | -0.23
Cc1ccc(N(C)S(=O)(=O)c2cccc(C(=O)OCc3ccc(C(C)(C)C)cc3)c2)cc1 | 0.09
CC(OC(=O)C1=C(Nc2ccccc2)OCC1=O)c1ccccc1Cl (stereo not drawn) | -0.02
CC(c1ccc(-n2cnc3ccccc32)cc1)N(C)C(=S)Nc1ccccc1 (stereo not drawn) | 0.07
CON(C)C(=O)Cn1c2ccccc2c(=O)c2ccccc21 | -0.05
CCCOc1cccc(C2C(C(=O)/C=C/c3ccco3)=C(O)C(=O)N2CCCN2CCOCC2)c1 (stereo not drawn) | -0.01
CCN(C(=O)CSc1nc(N)nc(N)n1)C1=CCCC1 | -0.08
CCCc1nnn[nH]1 | -0.07
CC1CCC(C(N)=O)CN1Cc1nc2c(F)cccc2[nH]1 (stereo not drawn) | 0.12
COc1cc(/C=C(/C#N)C(=O)NCCc2cnn(-c3ccccc3)c2)ccc1O | 0.05
CC([NH3+])C(C)[NH3+] (stereo not drawn) | -0.12
O=C1c2cccc3cccc(c23)N1Cc1cc(-c2cccs2)on1 | 0.05
CC(=O)N(c1ccc(C)c(C)c1)c1nc(/C=C(/CC(=O)O)c2nc3ccccc3s2)cs1 | 0.17
NC(=O)Cc1ccc(NC(=O)c2cc(Br)ccc2Cl)cc1 | -0.11
